This is one part of the list.
What was measured:
Experiment in all cases: log2 fold change, soluble protein after heating vs DMSO (PISA); higher = thermal stabilisation; K562 lysate, 10 uM; active = over 0.2 and 3.5 SD of the protein, either way, in both replicates (recomputed)
nilotinib = compound: Cc1cn(-c2cc(NC(=O)c3ccc(C)c(Nc4nccc(-c5cccnc5)n4)c3)cc(C(F)(F)F)c2)cn1 [nilotinib]
Procedure, shortened: (§1)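 Pellets of K562 cells were dounce-homogenised in PBS pH 7.4 with 1 mM MgCl2, and the crude extract was held at 1 mg/mL protein for a 30 min treatment with 10 μM compound. Aliquots were heated for 3 min over 48°C-58°C and pooled before NP-40 was added to 0.5% at 4°C. The supernatant from 21,000xg for 90 min was quantified by TMTpro 16plex LC-MS/MS with channel sums equalised. Values are reported from duplicates as log-two fold change in thermal stability relative to solvent controls.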

Chains of the proteins cited; added tags and fusions are not shown. Lines headed by an entry give the natural chain unless they say otherwise; changes in a name come on top.
UniProt Q96G25: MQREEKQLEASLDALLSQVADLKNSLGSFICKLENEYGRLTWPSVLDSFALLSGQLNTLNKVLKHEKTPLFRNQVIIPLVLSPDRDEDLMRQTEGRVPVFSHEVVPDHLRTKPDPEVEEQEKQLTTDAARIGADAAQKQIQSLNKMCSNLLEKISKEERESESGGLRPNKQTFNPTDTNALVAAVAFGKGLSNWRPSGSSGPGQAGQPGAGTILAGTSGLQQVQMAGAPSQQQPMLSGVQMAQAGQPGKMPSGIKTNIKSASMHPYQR
UniProt Q14728: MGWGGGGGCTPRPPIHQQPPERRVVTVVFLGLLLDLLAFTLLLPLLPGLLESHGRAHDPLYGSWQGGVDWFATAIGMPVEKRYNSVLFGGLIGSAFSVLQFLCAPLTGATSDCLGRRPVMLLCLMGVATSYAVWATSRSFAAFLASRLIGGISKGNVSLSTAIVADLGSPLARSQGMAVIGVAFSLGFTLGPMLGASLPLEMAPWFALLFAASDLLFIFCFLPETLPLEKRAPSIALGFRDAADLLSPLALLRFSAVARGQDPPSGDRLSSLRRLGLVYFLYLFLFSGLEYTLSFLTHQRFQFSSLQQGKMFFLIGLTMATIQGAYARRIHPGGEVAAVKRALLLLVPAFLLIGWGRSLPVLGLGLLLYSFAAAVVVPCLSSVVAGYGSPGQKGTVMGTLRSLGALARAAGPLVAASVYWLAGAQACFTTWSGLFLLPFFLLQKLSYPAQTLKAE
UniProt A1L020: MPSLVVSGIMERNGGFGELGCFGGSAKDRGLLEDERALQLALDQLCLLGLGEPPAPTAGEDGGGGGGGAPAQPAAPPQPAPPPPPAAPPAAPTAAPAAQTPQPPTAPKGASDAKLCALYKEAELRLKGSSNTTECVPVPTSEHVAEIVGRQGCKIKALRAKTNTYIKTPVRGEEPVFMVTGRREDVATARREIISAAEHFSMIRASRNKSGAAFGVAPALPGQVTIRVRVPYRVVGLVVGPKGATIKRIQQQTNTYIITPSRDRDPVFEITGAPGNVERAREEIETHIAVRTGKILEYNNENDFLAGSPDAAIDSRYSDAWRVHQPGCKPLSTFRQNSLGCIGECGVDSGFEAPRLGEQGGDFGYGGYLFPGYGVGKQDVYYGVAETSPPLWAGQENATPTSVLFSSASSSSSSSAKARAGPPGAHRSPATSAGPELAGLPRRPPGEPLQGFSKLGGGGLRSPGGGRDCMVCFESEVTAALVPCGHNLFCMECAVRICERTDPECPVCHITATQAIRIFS
UniProt Q8NI22: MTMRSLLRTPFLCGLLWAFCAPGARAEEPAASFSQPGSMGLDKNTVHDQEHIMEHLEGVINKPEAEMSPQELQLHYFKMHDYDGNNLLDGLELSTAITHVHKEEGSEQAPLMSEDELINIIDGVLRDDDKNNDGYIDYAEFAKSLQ
UniProt Q9Y316: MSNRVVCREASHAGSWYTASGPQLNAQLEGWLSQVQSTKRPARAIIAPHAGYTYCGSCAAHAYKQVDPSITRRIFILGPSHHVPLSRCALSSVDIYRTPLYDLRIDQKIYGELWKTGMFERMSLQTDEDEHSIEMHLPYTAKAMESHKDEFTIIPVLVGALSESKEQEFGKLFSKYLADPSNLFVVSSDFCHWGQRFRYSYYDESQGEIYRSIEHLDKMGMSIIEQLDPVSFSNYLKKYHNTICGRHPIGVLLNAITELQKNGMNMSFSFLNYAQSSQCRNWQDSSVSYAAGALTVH
UniProt Q9BUE0: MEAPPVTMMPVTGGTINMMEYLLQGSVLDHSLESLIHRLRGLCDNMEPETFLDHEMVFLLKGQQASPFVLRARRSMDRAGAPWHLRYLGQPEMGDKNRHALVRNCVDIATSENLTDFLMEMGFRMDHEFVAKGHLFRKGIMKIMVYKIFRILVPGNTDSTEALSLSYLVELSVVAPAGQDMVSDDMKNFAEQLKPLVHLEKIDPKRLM
UniProt P55081: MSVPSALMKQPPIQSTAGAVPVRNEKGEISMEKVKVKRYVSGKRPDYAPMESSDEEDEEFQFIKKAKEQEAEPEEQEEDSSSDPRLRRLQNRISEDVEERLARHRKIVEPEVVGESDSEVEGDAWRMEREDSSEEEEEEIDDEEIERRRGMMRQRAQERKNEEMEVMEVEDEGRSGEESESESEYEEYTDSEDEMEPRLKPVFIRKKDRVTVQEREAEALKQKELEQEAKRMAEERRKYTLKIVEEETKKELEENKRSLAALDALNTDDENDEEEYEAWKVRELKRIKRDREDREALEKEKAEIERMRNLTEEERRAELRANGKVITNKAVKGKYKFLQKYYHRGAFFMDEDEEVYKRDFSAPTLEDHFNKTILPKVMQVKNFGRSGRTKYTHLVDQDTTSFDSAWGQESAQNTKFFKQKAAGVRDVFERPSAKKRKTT
UniProt Q9H1U4: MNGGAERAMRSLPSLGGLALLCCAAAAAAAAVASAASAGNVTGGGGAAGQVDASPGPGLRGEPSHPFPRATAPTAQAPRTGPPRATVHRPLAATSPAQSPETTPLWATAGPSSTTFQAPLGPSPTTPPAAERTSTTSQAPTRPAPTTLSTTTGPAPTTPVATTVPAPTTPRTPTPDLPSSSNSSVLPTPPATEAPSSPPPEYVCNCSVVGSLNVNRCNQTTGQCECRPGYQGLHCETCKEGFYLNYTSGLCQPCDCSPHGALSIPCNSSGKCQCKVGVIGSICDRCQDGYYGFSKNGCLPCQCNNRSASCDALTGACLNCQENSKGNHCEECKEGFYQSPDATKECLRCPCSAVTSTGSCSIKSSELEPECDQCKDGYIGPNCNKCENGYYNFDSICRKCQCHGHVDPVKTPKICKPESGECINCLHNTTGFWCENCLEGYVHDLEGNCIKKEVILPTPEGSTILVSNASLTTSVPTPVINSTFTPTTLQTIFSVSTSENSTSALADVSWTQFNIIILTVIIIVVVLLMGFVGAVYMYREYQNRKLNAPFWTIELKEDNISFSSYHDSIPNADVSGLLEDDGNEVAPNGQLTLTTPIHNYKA
UniProt A0JLT2: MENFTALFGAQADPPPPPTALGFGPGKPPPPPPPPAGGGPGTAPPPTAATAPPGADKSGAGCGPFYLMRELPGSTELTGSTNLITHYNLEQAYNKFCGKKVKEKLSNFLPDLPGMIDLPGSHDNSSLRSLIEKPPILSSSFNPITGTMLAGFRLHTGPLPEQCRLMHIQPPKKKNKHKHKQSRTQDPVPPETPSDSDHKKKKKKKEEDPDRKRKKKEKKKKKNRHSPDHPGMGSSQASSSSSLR
UniProt Q86XA0: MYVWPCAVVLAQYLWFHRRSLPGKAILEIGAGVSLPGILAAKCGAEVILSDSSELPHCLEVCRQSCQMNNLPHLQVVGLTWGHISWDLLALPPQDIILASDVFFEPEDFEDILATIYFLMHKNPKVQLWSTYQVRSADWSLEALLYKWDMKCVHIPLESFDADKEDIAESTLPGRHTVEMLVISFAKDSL
UniProt Q05BQ5, whole entry, looked up: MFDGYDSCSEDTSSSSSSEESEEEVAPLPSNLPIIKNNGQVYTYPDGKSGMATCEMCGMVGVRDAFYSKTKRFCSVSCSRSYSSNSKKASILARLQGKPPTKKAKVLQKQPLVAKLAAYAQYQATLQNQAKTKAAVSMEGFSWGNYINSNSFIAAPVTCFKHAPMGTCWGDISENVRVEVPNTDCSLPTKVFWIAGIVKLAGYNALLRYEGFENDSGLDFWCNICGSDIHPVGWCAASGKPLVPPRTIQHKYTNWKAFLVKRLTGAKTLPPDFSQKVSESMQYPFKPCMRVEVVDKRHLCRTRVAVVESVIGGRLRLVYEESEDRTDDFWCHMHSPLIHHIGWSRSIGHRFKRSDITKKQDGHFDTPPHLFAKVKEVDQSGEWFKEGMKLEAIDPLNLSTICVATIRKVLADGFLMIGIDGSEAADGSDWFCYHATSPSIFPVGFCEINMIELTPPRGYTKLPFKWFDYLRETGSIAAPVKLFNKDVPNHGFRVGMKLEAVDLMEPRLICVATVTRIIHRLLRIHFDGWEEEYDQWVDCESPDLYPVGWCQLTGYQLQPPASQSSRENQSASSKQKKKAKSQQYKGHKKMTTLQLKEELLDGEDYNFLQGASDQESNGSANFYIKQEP
UniProt Q9H7H0: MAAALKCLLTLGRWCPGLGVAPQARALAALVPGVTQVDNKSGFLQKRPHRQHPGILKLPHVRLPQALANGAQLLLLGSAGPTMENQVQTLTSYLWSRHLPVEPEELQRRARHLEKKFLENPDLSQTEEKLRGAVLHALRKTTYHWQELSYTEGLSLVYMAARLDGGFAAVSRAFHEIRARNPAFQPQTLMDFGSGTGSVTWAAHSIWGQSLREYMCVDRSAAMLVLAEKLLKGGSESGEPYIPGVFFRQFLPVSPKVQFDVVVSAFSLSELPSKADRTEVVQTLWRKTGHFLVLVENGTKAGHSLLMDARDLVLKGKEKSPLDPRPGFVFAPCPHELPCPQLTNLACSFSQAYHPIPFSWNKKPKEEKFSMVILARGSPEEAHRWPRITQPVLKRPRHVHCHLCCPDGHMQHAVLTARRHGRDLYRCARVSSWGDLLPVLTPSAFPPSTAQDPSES
UniProt Q6P1Q9: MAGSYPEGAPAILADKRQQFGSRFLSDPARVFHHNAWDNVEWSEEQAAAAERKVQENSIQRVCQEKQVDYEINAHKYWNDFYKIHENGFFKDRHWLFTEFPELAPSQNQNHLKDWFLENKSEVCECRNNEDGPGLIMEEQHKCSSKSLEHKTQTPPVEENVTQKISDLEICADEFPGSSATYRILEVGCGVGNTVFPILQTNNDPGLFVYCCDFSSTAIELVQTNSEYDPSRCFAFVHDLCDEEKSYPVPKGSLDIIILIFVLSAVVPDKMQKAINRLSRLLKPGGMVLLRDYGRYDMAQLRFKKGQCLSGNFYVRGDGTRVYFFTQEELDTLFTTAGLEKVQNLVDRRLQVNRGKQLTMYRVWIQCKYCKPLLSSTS
UniProt P08582: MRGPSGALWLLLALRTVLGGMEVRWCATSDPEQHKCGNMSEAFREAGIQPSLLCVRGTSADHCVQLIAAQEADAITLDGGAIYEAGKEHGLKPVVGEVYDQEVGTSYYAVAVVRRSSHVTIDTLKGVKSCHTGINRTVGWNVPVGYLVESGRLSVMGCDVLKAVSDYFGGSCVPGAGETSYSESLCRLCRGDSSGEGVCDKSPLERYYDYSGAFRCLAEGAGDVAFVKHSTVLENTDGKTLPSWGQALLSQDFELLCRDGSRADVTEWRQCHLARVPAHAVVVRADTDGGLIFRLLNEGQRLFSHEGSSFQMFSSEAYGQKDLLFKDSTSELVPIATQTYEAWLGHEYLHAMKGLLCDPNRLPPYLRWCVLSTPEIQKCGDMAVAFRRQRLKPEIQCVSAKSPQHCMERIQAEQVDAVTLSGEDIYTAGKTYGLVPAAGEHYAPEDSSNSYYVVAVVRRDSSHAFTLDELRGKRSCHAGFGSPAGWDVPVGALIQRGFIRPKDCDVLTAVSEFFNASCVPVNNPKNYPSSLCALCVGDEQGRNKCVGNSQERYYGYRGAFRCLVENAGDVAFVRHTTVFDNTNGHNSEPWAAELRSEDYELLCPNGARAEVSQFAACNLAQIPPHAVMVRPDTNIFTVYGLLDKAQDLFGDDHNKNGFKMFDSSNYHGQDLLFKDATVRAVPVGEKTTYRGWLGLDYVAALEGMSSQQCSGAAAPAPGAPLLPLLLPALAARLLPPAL
UniProt Q8TCB7: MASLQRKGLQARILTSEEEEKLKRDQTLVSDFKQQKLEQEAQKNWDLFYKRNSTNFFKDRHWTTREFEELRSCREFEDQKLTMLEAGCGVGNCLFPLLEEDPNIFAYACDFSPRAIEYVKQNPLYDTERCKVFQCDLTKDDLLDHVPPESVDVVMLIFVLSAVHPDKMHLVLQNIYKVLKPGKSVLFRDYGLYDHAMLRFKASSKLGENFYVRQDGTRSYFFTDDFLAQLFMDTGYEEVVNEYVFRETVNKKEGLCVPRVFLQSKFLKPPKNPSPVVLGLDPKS
UniProt Q8IX19: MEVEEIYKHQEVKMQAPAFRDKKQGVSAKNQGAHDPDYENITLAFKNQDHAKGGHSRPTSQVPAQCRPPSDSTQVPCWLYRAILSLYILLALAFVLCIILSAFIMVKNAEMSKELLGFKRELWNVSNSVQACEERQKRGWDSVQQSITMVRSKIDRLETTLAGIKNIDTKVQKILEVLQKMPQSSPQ
UniProt Q9P086: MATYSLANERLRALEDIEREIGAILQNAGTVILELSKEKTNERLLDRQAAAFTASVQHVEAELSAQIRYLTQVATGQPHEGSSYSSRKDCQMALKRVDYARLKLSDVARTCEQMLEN
UniProt O00470: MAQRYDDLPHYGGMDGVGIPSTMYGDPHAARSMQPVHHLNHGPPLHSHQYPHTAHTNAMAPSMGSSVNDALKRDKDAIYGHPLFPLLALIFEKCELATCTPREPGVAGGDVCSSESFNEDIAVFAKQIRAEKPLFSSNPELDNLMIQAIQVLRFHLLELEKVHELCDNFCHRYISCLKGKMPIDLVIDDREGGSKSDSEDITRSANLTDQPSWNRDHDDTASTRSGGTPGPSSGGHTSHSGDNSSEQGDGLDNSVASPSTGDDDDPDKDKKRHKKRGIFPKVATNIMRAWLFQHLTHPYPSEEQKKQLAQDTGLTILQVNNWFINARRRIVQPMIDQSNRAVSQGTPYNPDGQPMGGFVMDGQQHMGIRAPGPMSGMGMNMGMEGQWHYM

[1] = compound: Cc1nc(Nc2n[nH]c3c2CN(C(=O)N[C@H](CN(C)C)c2ccccc2)C3(C)C)c2sccc2n1
Procedure, shortened: as §1

dasatinib = compound: Cc1nc(Nc2ncc(C(=O)Nc3c(C)cccc3Cl)s2)cc(N2CCN(CCO)CC2)n1 [dasatinib]
Procedure, shortened: as §1

[2] = compound: Cc1ncc(-c2ccnc(Nc3ccc(S(C)(=O)=O)cc3)n2)n1C(C)C
Procedure, shortened: as §1

[3] = compound: Cn1cc(-c2ccc3c(c2)CCN3C(=O)Cc2cccc(C(F)(F)F)c2)c2c(N)ncnc21
Procedure, shortened: as §1

quisinostat = compound: Cn1cc(CNCC2CCN(c3ncc(C(=O)NO)cn3)CC2)c2ccccc21 [quisinostat]
Procedure, shortened: as §1

tipifarnib = compound: Cn1cncc1[C@@](N)(c1ccc(Cl)cc1)c1ccc2c(c1)c(-c1cccc(Cl)c1)cc(=O)n2C [tipifarnib]
Procedure, shortened: as §1

[4] = compound: NC(=O)Nc1cc(-c2cccc(F)c2)sc1C(=O)N[C@H]1CCCNC1
Procedure, shortened: as §1

[5] = compound: NC(=O)c1cnc(N[C@@H]2CCCC[C@@H]2N)nc1Nc1cccc(-n2nccn2)c1
Procedure, shortened: as §1

[6] = compound: NC1(c2ccc(-c3nc4ccn5c(=O)[nH]nc5c4cc3-c3ccccc3)cc2)CCC1
Procedure, shortened: as §1

Measured: log2 fold change

MED8 isoform 2 (UniProt Q96G25)
inactive: nilotinib 0.084 | [1] -0.033 | dasatinib -0.017 | [2] -0.007 | [3] 0.044 | quisinostat -0.043 | tipifarnib 0.081 | [4] -0.005 | [5] 0.016 | [6] 0.024

MFSD10 (UniProt Q14728)
inactive: nilotinib 0.017 | [1] -0.018 | dasatinib 0.028 | [2] 0.024 | [3] 0.033 | quisinostat -0.041 | tipifarnib -0.097 | [4] -0.015 | [5] -0.013 | [6] -0.048

MFSD8 (UniProt Q8NHS3)
inactive: nilotinib -0.159 | [1] -0.2 | [2] 0.056 | quisinostat -0.03 | tipifarnib 0.062 | [4] 0.065 | [5] 0.102 | [6] -0.073

MED26 (UniProt O95402)
inactive: nilotinib 0.174 | [1] -0.156 | [2] -0.075 | quisinostat -0.03 | tipifarnib 0.087 | [4] 0.02 | [5] -0.053 | [6] 0.238

2 neighbouring entries already listed:
MFSD8 (UniProt Q8NHS3)
inactive: nilotinib -0.159 | [1] -0.2 | [2] 0.056 | quisinostat -0.03 | tipifarnib 0.062 | [4] 0.065 | [5] 0.102 | [6] -0.073

MED26 (UniProt O95402)
inactive: nilotinib 0.174 | [1] -0.156 | [2] -0.075 | quisinostat -0.03 | tipifarnib 0.087 | [4] 0.02 | [5] -0.053 | [6] 0.238

Continuation.

MEX3A (UniProt A1L020)
inactive: nilotinib 0.026 | [1] -0.069 | dasatinib -0.029 | [2] -0.137 | [3] -0.084 | tipifarnib 0.211

MBD2 (UniProt Q9UBB5)
inactive: nilotinib 0.012 | [1] 0.007 | dasatinib -0.039 | [2] 0 | [3] 0.069 | quisinostat -0.014 | tipifarnib -0.011 | [4] -0.009 | [5] -0.003 | [6] 0.024

MEX3B (UniProt Q6ZN04)
inactive: nilotinib -0.117 | [1] -0.152 | dasatinib 0.052 | [2] 0.119 | [3] 0.051 | tipifarnib -0.042 | [5] -0.013 | [6] 0.009

MCM7 (UniProt P33993)
inactive: nilotinib 0.014 | [1] -0.014 | dasatinib 0.022 | [2] 0.009 | [3] 0.061 | quisinostat -0.002 | tipifarnib 0.027 | [4] 0.015 | [5] 0.01 | [6] -0.049

MED21 (UniProt Q13503)
inactive: nilotinib 0.191 | [1] 0.102 | dasatinib -0.03 | [2] 0.393 | [3] 0.007 | quisinostat 0.03 | tipifarnib 0.046 | [4] -0.044 | [5] -0.065 | [6] -0.005

METTL2A (UniProt Q96IZ6)
inactive: nilotinib -0.012 | [1] 0.022 | dasatinib 0.044 | [2] -0.014 | [3] 0.03 | quisinostat -0.042 | tipifarnib 0.01 | [4] 0.057 | [5] -0.029 | [6] 0.005

MDM1 (UniProt Q8TC05)
inactive: nilotinib -0.073 | [1] -0.008 | dasatinib 0.015 | [2] -0.149 | [3] 0.056 | tipifarnib 0.006 | [5] -0.005 | [6] 0.061

MCFD2 (UniProt Q8NI22)
inactive: nilotinib 0.017 | [1] 0.057 | dasatinib 0.035 | [2] 0.108 | [3] 0.015 | quisinostat 0.169 | tipifarnib 0.101 | [4] -0.002 | [5] -0.016 | [6] 0.029

MCM10 (UniProt Q7L590)
inactive: nilotinib -0.008 | [1] -0.006 | dasatinib 0.012 | [2] 0.05 | [3] -0.174 | quisinostat -0.222 | tipifarnib 0.104 | [4] 0.054 | [5] 0.049 | [6] 0.039

MEMO1 (UniProt Q9Y316)
inactive: nilotinib 0.031 | [1] 0.018 | dasatinib -0.033 | [2] 0.03 | [3] 0.008 | quisinostat 0.031 | tipifarnib 0.023 | [4] 0.046 | [5] -0.002 | [6] -0.021

MED13L (UniProt Q71F56)
inactive: nilotinib 0.06 | [1] -0.056 | dasatinib 0.017 | [2] 0.032 | [3] 0.045 | quisinostat -0.055 | tipifarnib -0.012 | [4] 0.069 | [5] 0.014 | [6] 0.015

MED18 (UniProt Q9BUE0)
inactive: nilotinib 0 | [1] 0.022 | dasatinib 0.004 | [2] 0.013 | [3] -0.04 | quisinostat 0.038 | tipifarnib 0.016 | [4] 0.017 | [5] -0.044 | [6] -0.022

MCM2 (UniProt P49736)
inactive: nilotinib -0.036 | [1] -0.009 | dasatinib -0.026 | [2] 0.006 | [3] -0.009 | quisinostat 0.011 | tipifarnib -0.003 | [4] 0.016 | [5] -0.009 | [6] -0.016

MFAP1 (UniProt P55081)
inactive: nilotinib -0.059 | [1] 0.007 | dasatinib 0.037 | [2] -0.056 | [3] 0.001 | quisinostat 0.108 | tipifarnib 0.006 | [4] -0.031 | [5] 0.037 | [6] 0

MCM3AP (UniProt O60318)
inactive: nilotinib 0.297 | [1] -0.036 | dasatinib -0.112 | [2] -0.311 | [3] -0.015 | tipifarnib -0.057 | [5] 0.023 | [6] -0.001

MEGF9 (UniProt Q9H1U4)
inactive: dasatinib -0.03 | [3] -0.046 | [6] 0.181

MATK isoform 2 (UniProt P42679)
inactive: nilotinib -0.03 | [1] -0.086 | [2] -0.036 | tipifarnib 0.045 | [5] -0.003

METTL25 (UniProt Q8N6Q8)
inactive: dasatinib 0.078 | [3] 0.036 | [5] 0.196

MED19 (UniProt A0JLT2)
inactive: dasatinib 0.066 | [3] 0.027 | quisinostat -0.035 | [4] -0.009 | [5] -0.005

METTL26 (UniProt Q96S19)
inactive: dasatinib 0.001 | [3] 0.032 | quisinostat 0.011 | [4] -0.011 | [5] -0.022 | [6] 0.029

METTL23 (UniProt Q86XA0)
inactive: nilotinib -0.092 | [1] -0.141 | [2] -0.08 | tipifarnib 0.07 | [5] -0.027

MBTD1 (UniProt Q05BQ5)
inactive: quisinostat -0.048 | [4] 0.088

MCFD2 isoform 2 (UniProt Q8NI22)
inactive: [5] -0.158

MCPH1 (UniProt Q8NEM0)
inactive: quisinostat 0.007 | [4] -0.056

MFSD6 (UniProt Q6ZSS7)
inactive: dasatinib -0.012 | [3] 0.239 | [6] -0.18

MED24 (UniProt F5H5K2)
inactive: nilotinib 0.047 | [1] 0.122 | [2] 0.11 | tipifarnib 0.056

Fetched one by one from the entries so far (4):
MBTD1 (UniProt Q05BQ5)
inactive: quisinostat -0.048 | [4] 0.088

MED24 (UniProt F5H5K2)
inactive: nilotinib 0.047 | [1] 0.122 | [2] 0.11 | tipifarnib 0.056

MFSD6 (UniProt Q6ZSS7)
inactive: dasatinib -0.012 | [3] 0.239 | [6] -0.18

METTL23 (UniProt Q86XA0)
inactive: nilotinib -0.092 | [1] -0.141 | [2] -0.08 | tipifarnib 0.07 | [5] -0.027

(cont.)

METTL17 isoform 3 (UniProt Q9H7H0)
inactive: nilotinib 0.077 | [1] -0.045 | [2] 0.019 | tipifarnib -0.043

MBTPS1 (UniProt Q14703)
inactive: dasatinib 0.106 | [3] -0.101 | quisinostat -0.053 | [4] 0.026 | [6] -0.045

METTL2B (UniProt Q6P1Q9)
inactive: dasatinib -0.293 | [3] -0.095 | quisinostat 0.033 | [4] -0.076 | [5] -0.018

MBLAC1 (UniProt A4D2B0)
inactive: [5] -0.009 | [6] 0.136

MEX3C (UniProt Q5U5Q3)
inactive: nilotinib -0.076 | [1] -0.037 | [2] -0.321 | quisinostat -0.063 | tipifarnib -0.309 | [4] 0.13 | [6] 0

MBTPS2 (UniProt O43462)
inactive: quisinostat -0.211 | [4] -0.064

METTL7B (UniProt Q6UX53)
inactive: [6] -0.005

MBNL2 (UniProt Q5VZF2)
inactive: quisinostat -0.013 | [4] 0.022 | [5] -0.108 | [6] -0.128

METTL5 (UniProt H0YFV5)
inactive: quisinostat -0.283 | [4] 0.134 | [5] 0.088 | [6] -0.04

MFHAS1 (UniProt Q9Y4C4)
inactive: dasatinib -0.135 | [3] -0.061 | quisinostat -0.121 | [4] 0.11 | [5] -0.344 | [6] -0.026

MFSD14B (UniProt Q5SR56)
inactive: nilotinib 0.124 | [1] 0.084 | [2] 0.024 | quisinostat -0.2 | tipifarnib -0.198 | [4] 0.027 | [6] -0.055

MELTF (UniProt P08582)
inactive: quisinostat 0.046 | [4] -0.134 | [6] 0.002

MAU2 (UniProt Q9Y6X3)
inactive: quisinostat -0.057 | [4] 0.036 | [5] 0.018 | [6] 0.113

MFSD11 (UniProt O43934)
inactive: [5] 0.021 | [6] -0.063

MEGF8 (UniProt Q7Z7M0)
inactive: dasatinib -0.059 | [3] -0.003 | quisinostat 0.047 | [4] -0.073 | [6] -0.073

MED29 (UniProt Q9NX70)
inactive: dasatinib -0.1 | [3] 0.05 | quisinostat 0.071 | [4] -0.059 | [6] 0.061

METTL6 (UniProt Q8TCB7)
inactive: dasatinib 0.006 | [3] -0.313 | quisinostat -0.135 | [4] -0.031 | [5] -0.004

MCTS2P, A0A3B3IRV3
inactive: dasatinib 0.188 | [3] -0.196 | quisinostat 0.024 | [4] 0.048 | [5] 0.122 | [6] 0.036

MCEMP1 (UniProt Q8IX19)
inactive: dasatinib 0.166 | [3] 0.064 | quisinostat 0.023 | [4] 0.056 | [5] 0.109

MED11 (UniProt Q9P086)
inactive: dasatinib -0.149 | [3] 0.11 | quisinostat -0.042 | [4] 0.084 | [6] 0.095

MED6 (UniProt O75586)
inactive: dasatinib -0.112 | [3] -0.119 | quisinostat -0.213 | [4] -0.085 | [5] 0.051

MFSD9 (UniProt Q8NBP5)
inactive: dasatinib 0.017 | [3] -0.06

MDM4 (UniProt O15151)
inactive: dasatinib -0.12 | [3] -0.145 | quisinostat 0.157 | [4] -0.005

MFAP3 (UniProt P55082)
inactive: dasatinib 0.074 | [3] -0.064 | quisinostat 0.182 | [4] -0.012 | [6] 0.183

METAP2 isoform 2 (UniProt P50579)
inactive: nilotinib 0.042 | [1] -0.218 | [2] -0.078 | tipifarnib 0.068

MEF2A isoform 2 (UniProt Q02078)
inactive: nilotinib -0.099 | [1] 0.124 | [2] -0.021 | quisinostat -0.086 | tipifarnib -0.042 | [4] -0.052 | [5] -0.005 | [6] -0.008

MEIS1 (UniProt O00470)
inactive: quisinostat 0.009 | [4] 0.001

MDM2 isoform 11 (UniProt Q00987)
inactive: quisinostat -0.2 | [4] -0.077 | [6] -0.195

MBD6 (UniProt Q96DN6)
inactive: dasatinib 0.035 | [3] 0.007

— the supplement of paper PMC10849652
